Values of other authors, collected in US11786515B2, “Anesthetic mixtures formulations for local anesthesia, at very low concentration, to be used cold with suitable packaging” (L. MOLTENI & C. DEI FRATELLI ALITTI-SOCIETA′ DI ESERCIZIO …, priority 2018, dated 2023).
Where a name gives a salt, the structure may show the parent alone. Some of these results come from one statement about several compounds together.

Settings: long-acting anesthetics; cited from earlier work

| SMILES | toxic dose, total not to be exceeded [mg] |
| --- | --- |
| CCCCN1CCCCC1C(=O)Nc1c(C)cccc1C (centres unmarked) [Bupivacaine hydrochloride] | ≤ 150 |
| CCCCN1CCCC[C@H]1C(=O)Nc1c(C)cccc1C [Levobupivacaine hydrochloride] | ≤ 150 |
